# PubChem BioAssay AID1508597 – Cure First, 2020
# Aim: 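Knock-downs altering ovarian cancer cell survival with or without PARP inhibitor rucaparib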 (primary screen)
# Cell system: human ovarian carcinoma lines grown from tumours: OCI-P5x (papillary serous) and OCI-C5x (clear cell)
# Reagents: siRNA pool against human genes, 1.25 pmol siRNA per well
# Time to read-out: 72 h or 96 h, depending on the cell culture
# Conditions: rucaparib 20 µM (about IC30) or vehicle, present until read-out
# Rucaparib or vehicle: Vehicle
# Cell line: OCI-P5x (serous)
# Read-out: 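Luminescent ATP-based viability assay read 72 or 96 h after transfection, depending on culture, given as normalised percent viability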
# Reading the numbers: viability, normalised: higher = more viable cells remaining
# Hit rule: 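a well counts as a hit if its normalised viability is under 80 percent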
# Meaning of the calls: active = viability under 80%; inactive = viability 80% or more
# This is a random part of the about 2,100 reagents, in one setting of the screen. 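Calls flag viability under 80% in either arm, not effects specific to rucaparib; the reference for percent is not stated.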 A number with no mark means an inactive call. Some reagents were tested in more than one well and are listed for each. Not stated in the record: the 100% reference.
target,technical replicate,"viability, normalised (%)"
MBD3,1,41.9 (active)
MBD3,2,42.2 (active)
MBD3,3,48 (active)
NEK9,1,83.3
NEK9,2,63.6 (active)
NEK9,3,70.2 (active)
ARAF,1,94.8
ARAF,2,64.9 (active)
ARAF,3,83.5
RING1,1,52.6 (active)
RING1,2,61.8 (active)
RING1,3,78 (active)
ELANE,1,63.3 (active)
ELANE,2,75 (active)
ELANE,3,54.6 (active)
DDX49,1,52.3 (active)
DDX49,2,66.5 (active)
DDX49,3,85.7
HERC2,1,66.1 (active)
HERC2,1,136
HERC2,2,131
HERC2,2,63.7 (active)
HERC2,3,147
HERC2,3,59 (active)
CUL3,1,81.6
CUL3,2,99.7
CUL3,3,84.8
PDIK1L,1,82.2
PDIK1L,2,71.6 (active)
PDIK1L,3,77.5 (active)
KAT6A,1,46.1 (active)
KAT6A,2,53.8 (active)
KAT6A,3,67.4 (active)
PTK6,1,59.7 (active)
PTK6,2,49.9 (active)
PTK6,3,54.2 (active)

The list goes on; the last 3 above are carried over.
target,technical replicate,"viability, normalised (%)"
PTK6,1,59.7 (active)
PTK6,2,49.9 (active)
PTK6,3,54.2 (active)
PIK3C2G,1,85.8
PIK3C2G,2,94
PIK3C2G,3,106
CDKL1,1,94
CDKL1,2,84.9
CDKL1,3,75.3 (active)
KCTD13,1,94.8
KCTD13,2,73.1 (active)
KCTD13,3,73.7 (active)
HDAC10,1,53.5 (active)
HDAC10,2,72.1 (active)
HDAC10,3,97.7
MBD2,1,65 (active)
MBD2,2,70.1 (active)
MBD2,3,66.2 (active)
CTPS1,1,70.2 (active)
CTPS1,2,56.1 (active)
CTPS1,3,69.1 (active)
JADE2,1,38.1 (active)
JADE2,2,40.7 (active)
JADE2,3,67.9 (active)
